Source: publication PMC10548113, “Modeling a variant of unknown significance in the Drosophila ortholog of the human cardiogenic gene NKX2.5”
No constants are given. Whether binding was seen depends on the method and setting. Binding can be weak; no strength is given. Sequences can lack the tags named with a protein. For some of these results: In cells and extracts the contact can be indirect.

What was measured:
[1] = molecular target: GST-Doc1 (Drosophila); assay: pull-down; saturation binding: GST-Doc1 immobilised on glutathione agarose, incubated with 0-500 nM MBP-Tin HD WT or R321N; wash buffer 20 mM Tris-HCl pH 8, 150 mM NaCl, 1 mM DTT, 0.2% Triton X-100; anti-MBP western blot quantified in ImageJ, one-site specific binding model; both purified
[2] = molecular target: GST-Doc1 (Drosophila); assay: pull-down; GST or GST-Doc1 immobilised on glutathione agarose (from clarified lysate, extensively washed), incubated with 10 µM MBP, MBP-Tin HD WT or R321N; wash buffer 20 mM Tris-HCl pH 8, 150 mM NaCl, 1 mM DTT, 0.2% Triton X-100; bound MBP proteins detected by anti-MBP western blot; both purified

binding [1] | binding [2] | Binder
binds | binds | MBP-Tin homeodomain, wild type (domain or fragment, UniProt P22711 301-360) KRKPRVLFSQAQVLELECRFRLKKYLTGAEREIIAQKLNLSATQVKIWFQNRRYKSKRGD
binds | binds | MBP-Tin^R321N homeodomain (domain or fragment, UniProt P22711 301-360) KRKPRVLFSQAQVLELECRFNLKKYLTGAEREIIAQKLNLSATQVKIWFQNRRYKSKRGD
